No signal at the amounts used counts as a negative. Tags and fusion partners may be left off the protein sequences shown.
System: T1, BysR (Burkholderia sp. JP2-270)
T1 sequence (looked up): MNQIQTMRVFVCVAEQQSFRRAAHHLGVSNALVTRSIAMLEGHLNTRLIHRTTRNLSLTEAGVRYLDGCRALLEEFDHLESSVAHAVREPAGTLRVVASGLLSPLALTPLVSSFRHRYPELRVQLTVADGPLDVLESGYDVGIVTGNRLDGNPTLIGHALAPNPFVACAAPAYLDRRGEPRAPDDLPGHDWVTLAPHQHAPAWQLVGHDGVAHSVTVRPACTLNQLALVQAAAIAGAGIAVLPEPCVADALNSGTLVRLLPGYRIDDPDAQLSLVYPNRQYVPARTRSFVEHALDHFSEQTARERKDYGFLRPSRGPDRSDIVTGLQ
Assay: EMSA
Details: residues 1-327; probe letters rebuilt from the primers and the genome

Row | Sequence | binding result
1 | CAGTTCCGGCCTTCAGTGCATTCGGCGGCAGCACGTTTTCACCCAGCAACGCTCAATGACTGAAATGGACGTTTCAGCTTCTTGCAGGGGCATTGGTAACGATCGCCACTCAATGCGACCGCGGCTTGGCCGCCGCCGTCGTCCCCGCACGCGGTTTCGCATCGAACTGAACAGAGGAGCACGGCGCGCCGCCGTTTCGCGCGAGCCGAACACATCGGCGCGTGCAATGCGAGAACGCGCGACGAAACGCGCGCCGCGCAAACCGCGCCGGCTCGCCCGCGCTGGCGTTGCGCCGCCGTCCTCAAGCACGCACAACAAGGAAACAAGGAG (double strand) [ambR1 promoter probe 2] | no binding
2 | CCTCTGTTCAGTTCGATGCGAAACCGCGTGCGGGGACGACGGCGGCGGCCAAGCCGCGGTCGCATTGAGTGGCGATCGTTACCAATGCCCCTGCAAGAAGCTGAAACGTCCATTTCAGTCATTGAGCGTTGCTGGGTGAAAACGTGCTGCCGCCGAATGCACTGAAGGCCGGAACTGGAAAACCCGGCACCGGCCCGGAGCGGGCACGTTCCCGGCGGATTCAACGAAAAAATCACGATGAAAAAATGAAACTATCCTTTCCATTGAATTTTATCCACGAATACCCCAGCCGCGTATGATAGCGGCGATTTAAAATATCTGCATTTATCCTGTAATTAGTTTTTTAGCCACGCCGCTTGCAGACCAAAAATCAACAAATCTGCAAGCCGTTCACGAACAAAATTCTGGCAGGCCAGATAAATCTGGCCTTTGTTTACCACGAAATTTTGTAATAGTCACCCGAGCACCGCATACCATGGATTTTCGTCCAAGAGGCCTTATTCGAGAGAAGAATCGGCGATTTTCATCACGTC (double strand) [ambR1 promoter probe 3] | binds

Source: article doi:10.1101/2022.07.06.499086
